Reference: patent US20090209639A1, “PROCESS FOR MODIFYING DRUG CRYSTAL FORMATION” (priority 2003, published 2009)
Counter-ions that a name gives are not always drawn. At least one compound was matched to its structure with a doubt left.

Columns and labels:
[1] = storage stability of crystal form in open ampoules; type: physicochemical; settings: 4 weeks at 40° C./75% r.h. in open ampoules
bulk density of crystals = type: physicochemical
[2] = final, after temperature oscillation (zigzag-curve, 44° C. +/-6° C., methanol/water 95/5), ethanol addition, rotary dryer, mono-sodium salt

Row | SMILES | bulk density (bulk density of crystals; [2]) [kg/m^3] | also measured
1 | COc1c(C)c2c(c(O)c1C/C=C(\C)CCC(=O)O)C(=O)OC2 [di-sodium salt monohydrate, mycophenolate disodium salt, monohydrate] |  | crystal form change on storage [1]: changes to the di-sodium salt 11 pentahydrate
2 | COc1c(C)c2c(c(O)c1C/C=C(\C)CCC(=O)O)C(=O)OC2 [Ex. 3, mycophenolate mono-sodium salt] | 310 | 
3 | COc1c(C)c2c(c(O)c1C/C=C(\C)CCC(=O)O)C(=O)OC2 [Example 6, mycophenolate mono-sodium salt] |  | final bulk density (bulk density of crystals; after 8 temperature oscillations (sinus-curve, 44° C. +/-6° C., methanol/water 95/5), ethanol addition, rotary dryer): 350 kg/m^3
4 | COc1c(C)c2c(c(O)c1C/C=C(\C)CCC(=O)O)C(=O)OC2 [Ex. 2, mycophenolate mono-sodium salt] | 280 | 
5 | COc1c(C)c2c(c(O)c1C/C=C(\C)CCC(=O)O)C(=O)OC2 [Ex. 4, mycophenolate mono-sodium salt] | 380 | 
6 | COc1c(C)c2c(c(O)c1C/C=C(\C)CCC(=O)O)C(=O)OC2 [Ex. 5, mycophenolate mono-sodium salt] | 490 | 
7 | COc1c(C)c2c(c(O)c1C/C=C(\C)CCC(=O)O)C(=O)OC2 [Example 1, mycophenolate mono-sodium salt] |  | bulk density (bulk density of crystals; starting acicular crystals from isopropanol, dried at 50° C. in paddle dryer, before habit modification): 180-200 kg/m^3
